{
  "sequences": {"note": "Sequences of proteins named here, by UniProt entry; tags and fusion partners are left off.", "UniProt Q04206": "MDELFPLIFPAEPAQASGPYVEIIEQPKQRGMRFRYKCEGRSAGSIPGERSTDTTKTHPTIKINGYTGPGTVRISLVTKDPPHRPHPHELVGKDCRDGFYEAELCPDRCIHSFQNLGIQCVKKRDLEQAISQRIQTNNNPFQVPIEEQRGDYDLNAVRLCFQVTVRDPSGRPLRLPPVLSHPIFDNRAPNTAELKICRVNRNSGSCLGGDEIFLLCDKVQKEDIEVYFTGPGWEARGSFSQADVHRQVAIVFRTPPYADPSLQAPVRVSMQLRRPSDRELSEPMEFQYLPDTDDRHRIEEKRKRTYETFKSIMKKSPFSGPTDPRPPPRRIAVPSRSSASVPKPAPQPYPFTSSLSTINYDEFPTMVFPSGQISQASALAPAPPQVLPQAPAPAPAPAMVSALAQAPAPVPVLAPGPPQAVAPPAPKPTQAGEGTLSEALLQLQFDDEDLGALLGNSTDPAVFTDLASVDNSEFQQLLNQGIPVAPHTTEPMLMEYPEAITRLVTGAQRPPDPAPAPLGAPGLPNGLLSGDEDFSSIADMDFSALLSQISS"},
  "source": "paper PMC5072831",
  "about": "“Novel Nuclear Factor-KappaB Targeting Peptide Suppresses β-Amyloid Induced Inflammatory and Apoptotic Responses in Neuronal Cells” (PLoS ONE, 2016)",
  "biological_target": "T1, purified recombinant human GILZ protein (r-GILZ) with GST tag (human) (UniProt Q99576)",
  "T1 sequence": "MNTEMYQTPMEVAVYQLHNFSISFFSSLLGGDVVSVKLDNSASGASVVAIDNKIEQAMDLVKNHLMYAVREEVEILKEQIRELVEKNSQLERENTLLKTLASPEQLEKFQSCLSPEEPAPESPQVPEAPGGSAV",
  "assay": "ELISA; high binding plates coated with r-GILZ (0.5μM to 20μM), probed with 80μM r-p65, detected with anti-DDK antibody; absorbance at 650nm; both purified",
  "note": "Results are given in words; binding and its absence hold for the method and conditions named. Some entries that bind do so weakly or less than the wild type. Tags and fused reporters may be left off the sequences shown.",
  "data": [
    {"substance": "Recombinant human p65 protein (r-p65) with DDK tag (from UniProt Q04206 1-551)", "values": [
      {"measurement": "binding", "value": "binds"}
    ]}
  ]
}
